Test results reported in patent US20220089765A1, “CD31 COMPETITORS AND USES THEREOF” (ENCEFA, priority 2019, published 2022).
Positions count from the first letter of the chain named. These are yes or no findings as the source states them, for the method shown. Some entries that bind do so weakly or less than the wild type.

The chains behind the UniProt entries cited, without tags or fusion partners. Where a name states a change or a piece, a line headed by the entry shows the natural chain unless it says otherwise.
UniProt P28907: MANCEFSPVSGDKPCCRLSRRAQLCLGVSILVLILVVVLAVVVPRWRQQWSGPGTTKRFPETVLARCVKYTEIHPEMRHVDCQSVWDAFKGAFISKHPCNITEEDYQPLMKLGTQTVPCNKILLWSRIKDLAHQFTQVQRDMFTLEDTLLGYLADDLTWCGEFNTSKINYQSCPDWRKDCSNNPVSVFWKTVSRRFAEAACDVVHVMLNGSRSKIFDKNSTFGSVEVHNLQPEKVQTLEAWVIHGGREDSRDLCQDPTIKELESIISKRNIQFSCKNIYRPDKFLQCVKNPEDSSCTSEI

B1: anti-CD38 scFv Clone D06 (scFv, V domains shown)
VH: EVQLVESGGSLVKPGGSLRLSCAASGFTFSNYDMNWVRQAPGKGLEWISYIYGSSRDISYADFVKGRFTISRDNAKNSLYLQMNSLRAEDTAVYYCVRSSGYYFGYGMDVWGRGTLVTVSS
VL: QSVLTQPASVSGSPGQSITISCAGTSSDVGGSYYVSWYQQHPGKAPKLMIYSDSYRPSGVSNRFSGSKSGNTASLTISGLQAEDEADYYCSSNTAYSTRVFGGGTKL
B2: anti-CD38 scFv Clone D10 (scFv, V domains shown)
VH: EVQLVESGGSLVKPGGSLRLSCAASGFTFSNSAMNWVRQAPGKGLEWISSISGSSRDIYYADFVKGRFTISRDNAKNSLYLQMNSLRAEDTAVYYCVRSSSSYYYSGNGMDVWGRGTLVTVSS
VL: B1 VL with S32N, Y33S, S52Y, A95Y
B3: anti-CD38 scFv Clone D07 (scFv, V domains shown)
VH: B2 VH with S50Y, Y59S, N108S
VL: B1 VL with S32N, Y33S, S52Y, A95Y
B4: anti-CD38 scFv Clone C05 (scFv, V domains shown)
VH: B2 VH with S32N, A33Y, D57Y, Y59S
VL: B1 VL with Y33S, S52Y, A95Y
B5: anti-CD38 scFv Clone B08 (scFv, V domains shown)
VH: EVQLVESGGSLVKPGGSLRLSCAASGFTFSNYYMNWVRQAPGKGLEWISSISGSSRSIYYADFVKGRFTISRDNAKNSLYLQMNSLRAEDTAVYYCVRSSDDYYYDYGMDVWGRGTLVTVSS
VL: B1 VL with Y34S, S52D, Y55N, N93Y, A95D
B6: anti-CD38 scFv Clone C06 (scFv, V domains shown)
VH: B2 VH with D57N, S101Y, Y103S, Y105G
VL: B1 VL with Y33S, S52Y, A95Y

What follows are binders tested against human CD38 (human) (UniProt P28907) (assay: phage display selection on human CD38 extracellular domain; binding confirmed by FACS on CD38+ Jurkat T cells).

Row | binding | Binder
1 | binds | B1
2 | binds | B2
3 | binds | B3
4 | binds | B4
5 | binds | B5
6 | binds | B6
